Reference: publication PMC7978383
Substitutions are numbered along the chain they refer to. These are yes or no findings as the source states them, for the method shown. In cells and extracts the contact can be indirect. Some results given as binding are weak or reduced against the parent protein; the word gives no strength. For some of these results: Tags and fused reporters may be left off the sequences shown.

By UniProt entry, the sequences of proteins in these tests, tags left out.
UniProt P46937: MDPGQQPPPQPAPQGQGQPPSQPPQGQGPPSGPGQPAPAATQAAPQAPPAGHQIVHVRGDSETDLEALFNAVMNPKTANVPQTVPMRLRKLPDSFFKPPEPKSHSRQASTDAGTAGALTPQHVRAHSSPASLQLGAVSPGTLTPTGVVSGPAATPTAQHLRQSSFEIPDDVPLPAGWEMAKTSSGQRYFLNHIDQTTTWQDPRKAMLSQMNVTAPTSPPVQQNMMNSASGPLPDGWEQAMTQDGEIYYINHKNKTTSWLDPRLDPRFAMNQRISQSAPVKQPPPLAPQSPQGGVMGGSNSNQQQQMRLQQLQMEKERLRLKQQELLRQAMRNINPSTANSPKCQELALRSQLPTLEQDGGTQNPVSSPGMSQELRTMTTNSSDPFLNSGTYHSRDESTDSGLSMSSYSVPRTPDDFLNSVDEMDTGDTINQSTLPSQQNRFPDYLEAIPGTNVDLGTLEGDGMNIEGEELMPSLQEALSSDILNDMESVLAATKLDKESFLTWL
UniProt P46938: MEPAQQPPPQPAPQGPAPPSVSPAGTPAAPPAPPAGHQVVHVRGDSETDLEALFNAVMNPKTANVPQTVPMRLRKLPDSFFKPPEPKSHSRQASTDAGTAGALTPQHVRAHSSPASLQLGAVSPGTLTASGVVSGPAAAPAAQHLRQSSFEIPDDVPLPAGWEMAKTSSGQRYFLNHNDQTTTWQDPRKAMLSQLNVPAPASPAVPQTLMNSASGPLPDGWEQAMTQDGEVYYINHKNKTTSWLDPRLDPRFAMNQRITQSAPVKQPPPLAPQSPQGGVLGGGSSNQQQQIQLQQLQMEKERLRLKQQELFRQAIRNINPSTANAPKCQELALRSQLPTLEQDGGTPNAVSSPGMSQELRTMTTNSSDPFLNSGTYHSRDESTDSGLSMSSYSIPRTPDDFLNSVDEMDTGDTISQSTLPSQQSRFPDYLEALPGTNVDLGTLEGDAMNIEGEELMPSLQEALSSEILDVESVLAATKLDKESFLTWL
UniProt Q9GZV5: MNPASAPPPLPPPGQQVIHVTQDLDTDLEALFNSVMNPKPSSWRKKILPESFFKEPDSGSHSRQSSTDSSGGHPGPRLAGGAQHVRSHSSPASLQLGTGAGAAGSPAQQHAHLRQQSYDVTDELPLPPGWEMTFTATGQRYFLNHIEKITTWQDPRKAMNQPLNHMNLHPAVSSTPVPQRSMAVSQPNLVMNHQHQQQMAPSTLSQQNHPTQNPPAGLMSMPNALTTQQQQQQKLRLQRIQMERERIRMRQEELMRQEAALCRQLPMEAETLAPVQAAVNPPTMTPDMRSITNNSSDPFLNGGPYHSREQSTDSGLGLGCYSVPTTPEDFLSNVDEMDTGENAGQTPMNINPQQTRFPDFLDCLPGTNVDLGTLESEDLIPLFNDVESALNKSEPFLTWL

How the values were obtained:
[1] = molecular target: T1, stably expressed PPM1A (human) (UniProt P35813); assay: co-IP; endogenous YAP and stably expressed PPM1A in cell lysate; MLB buffer; immunoblotting
T1 sequence: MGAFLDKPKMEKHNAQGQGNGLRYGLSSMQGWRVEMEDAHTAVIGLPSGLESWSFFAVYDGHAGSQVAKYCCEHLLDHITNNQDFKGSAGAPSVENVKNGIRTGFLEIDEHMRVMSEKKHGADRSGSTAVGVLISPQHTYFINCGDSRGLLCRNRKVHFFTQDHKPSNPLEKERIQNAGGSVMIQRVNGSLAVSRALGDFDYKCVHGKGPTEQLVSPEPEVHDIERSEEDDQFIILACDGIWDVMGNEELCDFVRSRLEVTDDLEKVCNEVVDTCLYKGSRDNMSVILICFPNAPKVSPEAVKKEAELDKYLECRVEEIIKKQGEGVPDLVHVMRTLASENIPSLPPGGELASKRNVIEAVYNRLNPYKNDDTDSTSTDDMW

[2] = molecular target: T2, endogenous PPM1A in regenerating mouse liver (mouse (endogenous in liver)) (UniProt P49443); assay: co-IP; endogenous proteins in mouse liver lysates 2 days post hepatectomy; MLB buffer; anti-PPM1A antibody for endogenous proteins; immunoblotting
T2 sequence: T1 sequence with S52T, K86R, N293S, P299A, C314S, G324V, T376A

[3] = molecular target: T3, protein phosphatase magnesium-dependent 1A (PPM1A), tagged, coexpressed (human) (UniProt P35813); assay: co-IP; tagged proteins coexpressed in HEK293 cells; lysis and washes in MLB (20 mM Tris-Cl, 200 mM NaCl, 1% NP-40, pH 7.5); immunoprecipitation with anti-Flag, anti-Myc or anti-HA; immunoblotting
T3 sequence: T1 sequence

binding [3] | Substance | also measured
– | endogenous YAP in HEK293 cells (from UniProt P46937 1-504) | binding [1]: binds
– | endogenous YAP in regenerating mouse liver (from UniProt P46938 1-488) | binding [2]: binds
binds | Yes-associated protein (YAP), tagged, coexpressed (from UniProt P46937 1-504) | –
binds | transcriptional coactivator with PDZ-binding motif (TAZ), tagged, coexpressed (from UniProt Q9GZV5 1-400) | –
